Results are given in words; binding and its absence hold for the method and conditions named. Binding seen in cells or lysates may run through a third protein. Some binding calls cover weakened binding; strength is not graded here.
What was measured:
[1] = target: T1, IRF1 (mouse (endogenous in primary VSMC)), P15314; experiment: co-IP; lysates of primary WT mouse VSMC, untreated or treated with IFNα (8 h) or IFNγ (8 h); co-IP buffer 1% NP-40, 150 mM NaCl, 1 mM EDTA, 50 mM Tris HCl pH 7.5, 10% glycerol; immunoprecipitated with IRF9 or IRF1 antibodies overnight at 4°C, Dynabeads Protein A/G; Western blot with tSTAT1 and tSTAT2; settings: remark: other sources report otherwise
T1 chain: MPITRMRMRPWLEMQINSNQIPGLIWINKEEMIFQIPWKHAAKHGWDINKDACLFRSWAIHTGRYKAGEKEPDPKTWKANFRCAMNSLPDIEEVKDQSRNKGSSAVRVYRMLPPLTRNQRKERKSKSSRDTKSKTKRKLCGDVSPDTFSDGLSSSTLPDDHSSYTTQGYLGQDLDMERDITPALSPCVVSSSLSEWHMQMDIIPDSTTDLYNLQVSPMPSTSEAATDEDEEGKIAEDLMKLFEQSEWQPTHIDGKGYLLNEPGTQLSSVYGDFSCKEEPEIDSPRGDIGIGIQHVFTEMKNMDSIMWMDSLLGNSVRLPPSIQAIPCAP

[2] = target: T2, Interferon Regulatory Factor (IRF)9 (mouse (endogenous in primary VSMC)), Q61179; experiment: as above; settings: remark: other sources report otherwise
T2 chain: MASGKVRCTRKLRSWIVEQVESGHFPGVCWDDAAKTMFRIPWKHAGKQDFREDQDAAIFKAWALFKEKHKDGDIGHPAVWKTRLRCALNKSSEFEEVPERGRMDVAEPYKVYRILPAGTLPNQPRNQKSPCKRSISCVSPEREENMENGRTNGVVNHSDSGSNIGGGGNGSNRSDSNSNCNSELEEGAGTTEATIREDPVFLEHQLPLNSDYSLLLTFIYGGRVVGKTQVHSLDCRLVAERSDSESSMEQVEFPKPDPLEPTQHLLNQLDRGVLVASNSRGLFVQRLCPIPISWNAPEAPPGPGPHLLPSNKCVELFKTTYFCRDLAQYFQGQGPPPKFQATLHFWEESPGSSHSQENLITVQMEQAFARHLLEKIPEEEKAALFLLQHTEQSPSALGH

binding [1]: no binding | binding [2]: binds
B1: Signal Transducer and Activator of Transcription (STAT)1, P42225 1-749 (protein)
chain: MSQWFELQQLDSKFLEQVHQLYDDSFPMEIRQYLAQWLEKQDWEHAAYDVSFATIRFHDLLSQLDDQYSRFSLENNFLLQHNIRKSKRNLQDNFQEDPVQMSMIIYNCLKEERKILENAQRFNQAQEGNIQNTVMLDKQKELDSKVRNVKDQVMCIEQEIKTLEELQDEYDFKCKTSQNREGEANGVAKSDQKQEQLLLHKMFLMLDNKRKEIIHKIRELLNSIELTQNTLINDELVEWKRRQQSACIGGPPNACLDQLQTWFTIVAETLQQIRQQLKKLEELEQKFTYEPDPITKNKQVLSDRTFLLFQQLIQSSFVVERQPCMPTHPQRPLVLKTGVQFTVKSRLLVKLQESNLLTKVKCHFDKDVNEKNTVKGFRKFNILGTHTKVMNMEESTNGSLAAELRHLQLKEQKNAGNRTNEGPLIVTEELHSLSFETQLCQPGLVIDLETTSLPVVVISNVSQLPSGWASILWYNMLVTEPRNLSFFLNPPCAWWSQLSEVLSWQFSSVTKRGLNADQLSMLGEKLLGPNAGPDGLIPWTRFCKENINDKNFSFWPWIDTILELIKNDLLCLWNDGCIMGFISKERERALLKDQQPGTFLLRFSESSREGAITFTWVERSQNGGEPDFHAVEPYTKKELSAVTFPDIIRNYKVMAAENIPENPLKYLYPNIDKDHAFGKYYSRPKEAPEPMELDDPKRTGYIKTELISVSEVHPSRLQTTDNLLPMSPEEFDEMSRIVGPEFDSMMSTV

Reference: PMC6558219
